Measurements as given in publication doi:10.1101/2020.04.25.060004.
For at least one entry, the source does not settle the construct or the ends of the probe. For part of these data: Weaker means in comparison with the reference protein, sequence or condition of that experiment.

Key:
VEGF = experiment: N2A2 flow-cell fluorescence
insulin (human) [1] = experiment: bead-based flow cytometry; settings: 1% human serum, no meaningful Kd
insulin (human) [2] = experiment: cited

Sequence | binding result (VEGF) | binding result (insulin (human) [1]) | Kd (insulin (human) [2]) [µM]
AGCAGCACAGAGGTCAGATGAATTGGGCCCGTCCGTATGGTGGGTCCTATGCGTGCTACCGTGAA [SL-2B (displayed on flow-cell)] | binds | – | –
GGTGGTGGGGGGGGTTGGTAGGGTGTCTTC [IGA3 bt] | – | binds more weakly | 10
